Results reported in PubChem BioAssay AID493014 (National Center for Advancing Translational Sciences (NCATS), 2011).
Some of the results follow. These are further read-outs of the screen, such as a control signal, another cell line or another target. No call is given for them. The list favours compounds with an active or inconclusive main result. The note in brackets gives the kind of curve behind each potency; many fits are weak.

Assay: qHTS Assay to Find Inhibitors of Chronic Active B-Cell Receptor Signaling
Conditions: ABC-DLBCL IkBa-CBG/CBR reporter, luminescence ratio (green luciferase fused to IkBa over red control in TMD8 lymphoma cells), 4 h
Method in brief: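 Concentration-response series (up to 46 uM) were applied to TMD8 dual-reporter cells for 4 h at 37C with doxycycline. Green/red ratio, after filter-overlap correction, defined %Activity; red signal alone was normalised to basal cells and zero luminescence.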

[1] = measured here: CBR red luminescence, cell number
[2] = measured here: IkBa-CBG green luminescence

Row | SMILES | AC50 [1] | AC50 [2]
1 | O=C1c2ccccc2NC(c2ccc(Br)o2)N1O (stereo unspecified) | 16.4 µM [falling, single point] | –
2 | O=C(COc1ccccc1)Nc1nnc(-c2ccccc2)o1 | 16.4 µM [falling, single point] | –
3 | Cc1cc2oc(C(=O)Nc3ccc(S(=O)(=O)Nc4onc(C)c4C)cc3)cc(=O)c2cc1Cl | 1.26 µM [falling, full curve] | –
4 | CSc1nc(N)c(C(=O)NC2CCCCC2)s1 | 7.94 µM [falling, partial curve] | –
5 | Cc1c(C(=O)Oc2cccc3cccnc23)cccc1[N+](=O)[O-] | 17.8 µM [rising, single point] | 28.2 µM [falling, single point]
6 | Nc1ccc(C(=O)N2CCN(S(=O)(=O)c3ccc4c(c3)OCCO4)CC2)cc1[N+](=O)[O-] | 5.62 µM [falling, partial curve] | –
7 | CC(=O)c1cccc(CN2CCN(C(C)C)C(CCO)C2)c1 (stereo unspecified) | 0.562 µM [rising, full curve, poor fit] | –
8 | CCC(C)(C(=O)NC1CCCCC1)N(CC1CCCO1)C(=O)CNC(=O)c1ccccc1 (stereo unspecified) | 20.6 µM [falling, single point] | –
9 | COc1ccc(NCC(=O)n2c(C)c(C)c3ccccc32)cc1 | 10 µM [falling, partial curve, poor fit] | 35.5 µM [falling, partial curve, poor fit]
10 | CCOC(=O)c1sc(NC(=O)c2ccncc2)c(C#N)c1C | 2.31 µM [rising, partial curve, poor fit] | –
11 | CCOc1ccc2cc(/C=C/C(=O)c3ccco3)c(Cl)nc2c1 | 1.84 µM [rising, full curve, poor fit] | –
12 | COc1cccc(-c2cc(C(F)(F)F)nc(N3CCCCC3)n2)c1 | 0.224 µM [rising, full curve, poor fit] | –
13 | Cn1ncc2c(O/N=C(\N)c3ccc(C(F)(F)F)cc3)ncnc21 | 5.01 µM [rising, partial curve, poor fit] | –
14 | Cc1cccc(NC(=S)NNC(=O)c2ccc(O)cc2O)c1C | 11.2 µM [falling, partial curve] | –
15 | CC[C@]12c3[nH]c4cc(CCC(=O)N(C)C)ccc4c3CCN1C(=O)[C@@H](CC(=O)NC/C=C(\C)CCC=C(C)C)C[C@@H]2C(=O)N1CCN(C(=O)c2ccco2)CC1 | 6.51 µM [rising, single point] | 8.2 µM [falling, partial curve]
16 | COc1ccc(-c2csc(N(C)C(=O)c3ccco3)n2)cc1 | 3.98 µM [rising, full curve] | –
17 | CCn1c(SCC(=O)Nc2cccc(NC(=O)c3ccco3)c2)nnc1-c1cccs1 | 2.91 µM [falling, partial curve] | –
18 | CCOc1ccc(NC(=O)CCc2nnc3ccc(N4CCC5(CC4)OCCO5)nn23)cc1 | 35.5 µM [rising, single point] | –
19 | CCn1c(COc2ccc(OC)cc2)nc2ccccc21 | 3.98 µM [rising, partial curve, poor fit] | –
20 | O=C(CCCN1C(=O)c2ccccc2C1=O)Nc1ccccc1 | 12.6 µM [rising, partial curve] | –
21 | Cc1ccc(-c2nnc(Nc3ccc(CC(N)=O)cc3)c3ccccc23)cc1S(=O)(=O)NCC1CCCO1 (stereo unspecified) | 12.6 µM [falling, partial curve] | –

Row | SMILES | AC50 [1] | AC50 [2]
22 | Oc1ccc(Nc2nc(-c3ccccc3O)nc3ccccc23)cc1 | 35.5 µM [falling, single point] | –
23 | CCc1nc2ccccc2c(C(=O)OCC(=O)Nc2cccc(S(=O)(=O)NC3=NCCCCC3)c2)c1C | 35.5 µM [falling, single point] | 35.5 µM [rising, partial curve, poor fit]
24 | O=C1C(=O)N(c2ccccc2)c2ccccc21 | 29.1 µM [rising, single point] | –
25 | CCOc1ccc(N(C)S(=O)(=O)c2ccc(C)c(C(=O)Nc3nnc(C4CC4)s3)c2)cc1 | 0.013 µM [rising, full curve, poor fit] | –
26 | CC(C)(C)CC(=O)O/N=C(\N)c1ccccn1 | 16.4 µM [falling, single point] | –
27 | O=C(Nc1ccc(N2CCOCC2)cc1)c1cccnc1 | 14.6 µM [falling, partial curve, poor fit] | –
28 | COc1cc2c(cc1OC)-c1cc(NC3CCCCC3)nc(=O)n1CC2 | – | 14.1 µM [falling, partial curve]
29 | COc1ccc(COC(=O)c2sc3nc4n(c(=O)c3c2C)CCC4)cc1 | 5.8 µM [rising, partial curve] | –
30 | O=C(N/N=C/c1cc(Br)cs1)c1ccc2c(c1)OCCO2 | 7.08 µM [falling, full curve, poor fit] | –
31 | Cc1cccc(-n2ncc3c(NC4CCCCC4)ncnc32)c1 | 1.84 µM [falling, partial curve] | –
32 | Cc1ccc(C2=NN(S(C)(=O)=O)C(c3ccc4c(c3)OCO4)C2)cc1 (stereo unspecified) | 18.4 µM [rising, partial curve, poor fit] | –
33 | CCOCCOCCC(C(=O)OCC)P(=O)(c1ccccc1)c1ccccc1 (stereo unspecified) | 4.11 µM [rising, full curve, poor fit] | –
34 | Cc1ccc2nc(CSc3nc(C)nc4c3oc3ccccc34)[nH]c2c1 | 29.1 µM [falling, single point] | –
35 | COc1ccc(NC(=O)N(C)C[C@H]2Oc3ccc(NC(=O)c4ccncc4)cc3C(=O)N([C@H](C)CO)C[C@@H]2C)cc1 | 25.9 µM [rising, single point] | –
36 | O=C(/C=C/c1ccccc1)Nc1sc2c(c1C(=O)O)CCC2 | 1.41 µM [falling, full curve] | –
37 | O=C(O)c1ccccc1S(=O)(=O)CC(=O)N1CCCCC1 | 15.8 µM [rising, single point] | –
38 | C/C(=N\Nc1ccc(Cl)c(C(=O)O)c1)c1cccc([N+](=O)[O-])c1 | 10 µM [falling, partial curve] | –
39 | CCOC(=O)C(=CNc1cc(C)nn1-c1ccccc1)C(=O)OCC | 12.6 µM [falling, single point] | –
40 | Cc1ccc(-c2cc(C(=O)N/N=C/C(Br)=C/c3ccccc3)n[nH]2)o1 | – | 25.1 µM [falling, single point]
41 | CC(OC(=O)c1n[nH]c2ccccc12)C(=O)NC1CCCCC1C (stereo unspecified) | 18.4 µM [falling, partial curve] | –
42 | C=C1C2(C(=O)Nc3ccc(SC(F)F)cc3)CCC(C2)C1(C)C (stereo unspecified) | 12.6 µM [rising, partial curve] | –

3 structures from above, arranged by length of the SMILES, ascending:
Row | SMILES | AC50 [1] | AC50 [2]
22 | Oc1ccc(Nc2nc(-c3ccccc3O)nc3ccccc23)cc1 | 35.5 µM [falling, single point] | –
32 | Cc1ccc(C2=NN(S(C)(=O)=O)C(c3ccc4c(c3)OCO4)C2)cc1 (stereo unspecified) | 18.4 µM [rising, partial curve, poor fit] | –
23 | CCc1nc2ccccc2c(C(=O)OCC(=O)Nc2cccc(S(=O)(=O)NC3=NCCCCC3)c2)c1C | 35.5 µM [falling, single point] | 35.5 µM [rising, partial curve, poor fit]

(cont.)

Row | SMILES | AC50 [1] | AC50 [2]
43 | Cc1cc(C)c([N+](=O)[O-])cc1-c1ccc(/C=N/NC(=O)c2nonc2N)o1 | 29.1 µM [falling, partial curve, poor fit] | –
44 | Cc1ccc2cc3cc(C(=O)NCc4ccco4)oc3nc2c1 | 35.5 µM [falling, single point] | –
45 | CCN(CC)P(=O)(Nc1ccc(SC(F)F)cc1)c1ccc(N(C)C)cc1NC(=O)c1ccco1 (stereo unspecified) | 8.91 µM [falling, partial curve, poor fit] | –
46 | O=C(NCCSc1c[nH]c2ccccc12)c1c(F)cccc1F | 11.2 µM [falling, single point] | –
47 | CCC1CCCCN1CCCNC(=O)c1ccc2c(c1)N(Cc1ccc(F)cc1)C(=O)c1ccccc1S2=O (stereo unspecified) | 17.8 µM [falling, partial curve, poor fit] | –
48 | c1csc(CN2CCN(Cc3cccs3)C2c2cccs2)c1 | 1.46 µM [falling, full curve, poor fit] | –
49 | CN(C)c1oc(COc2ccc(F)cc2)nc1C#N | 20.6 µM [rising, single point] | –
50 | S=C(c1ccc(-c2ccccc2Cl)o1)N1CCOCC1 | 23.1 µM [rising, partial curve, poor fit] | –
51 | CCn1c(SCC(=O)N2CCCc3ccccc32)nc2c1c(=O)n(C)c(=O)n2C | 12.6 µM [falling, partial curve, poor fit] | –
52 | CC1CN(C(=O)CCCN2C(=O)c3ccccc3C2=O)CC(C)O1 (stereo unspecified) | 11.2 µM [rising, partial curve, poor fit] | –
53 | CCCc1cc(SCC(=O)Nc2c(C)n(C)n(-c3ccccc3)c2=O)n2c(nc3ccccc32)c1C#N | 4.11 µM [falling, full curve] | 5.8 µM [rising, partial curve, poor fit]
54 | O=c1c2cc3c(=O)n(CC4CCCO4)c(=O)c3cc2c(=O)n1CC1CCCO1 (stereo unspecified) | 29.1 µM [rising, single point] | –
55 | C#CCn1cc(/C=N/NC(=O)c2cc3ccccc3o2)c2ccccc21 | 29.1 µM [falling, single point] | –
56 | COc1ccc(C2C(C(=O)c3ccco3)=C(O)C(=O)N2CCOCCO)cc1OC (stereo unspecified) | 1.26 µM [falling, full curve] | –
57 | S=C(NNc1ccnc2cc(Cl)ccc12)Nc1ccccc1Cl | 23.1 µM [falling, partial curve] | –
58 | Cc1c(C(=O)O)sc2nc(CSc3nnc(-c4ccc(F)cc4)n3C)[nH]c(=O)c12 | 0.794 µM [rising, full curve, poor fit] | –
59 | COc1ccc(C(=O)n2c(N)nc3ccccc32)cc1OC | 12.6 µM [falling, partial curve] | –
60 | COc1ccc(CCNC(=O)COC(=O)/C=C/c2cc(OC)ccc2OC)cc1 | 29.1 µM [rising, single point] | –
61 | COC(=O)c1cc(CNC(=O)c2ccccc2OCc2c(C)noc2C)ccc1OC | 17.8 µM [rising, single point] | –
